# Measured values as given in US10159726B2, “Peptides, combination of peptides and scaffolds for use in immunotherapeutic treatment of various cancers” (Immatics Biotechnologies GmbH, priority 2015, dated 2018).
# For part of these data: Expression grades refer to the transcript from which the peptide derives; gene names, where given, were looked up from the sequence.
# Legend:
# Parameters in all cases: species or system human
# [1] = tested on: source genes of selected peptides; assay: Target coverage of source genes in tumor entities based on TCGA Research Network data; conditions: over-expressed = more than 2-fold above the highest 75% percentile of normal organs; for Target coverage, over-expression category of source gene, BLCA (N = 408): Bladder urothelial carcinoma; for Target coverage, over-expression category of source gene, DLBC (N = 48): Lymphoid neoplasm diffuse large B-cell lymphoma; for Target coverage, over-expression category of source gene, MESO (N = 87): Mesothelioma; for Target coverage, over-expression category of source gene, KIRP (N = 291): Kidney renal papillary cell carcinoma
# [2] = tested on: HLA-A*24 molecules of primary tumors; assay: Identification and relative LC-MS quantitation of HLA-A*24 tumor-associated peptides presented on tissue samples (XPRESIDENT presentation profiles); conditions: for ENTITIES: Table 9A: selected HLA-A*24-binding tumor-associated peptides, cancer entities on which the peptide was found presented; for Peptide Presentation on cancer entities: Table 9B: selected HLA-A*24 peptides, presentation on additional cancer entities
# [3] = tested on: source genes of selected peptides; assay: Expression profiling of source genes by in-house RNAseq, tumor vs normal tissues (target coverage); conditions: for Target coverage, over-expression of source gene, AML: AML (N = 7); for Target coverage, over-expression of source gene, AML / Target coverage, over-expression of source gene, BRCA / Target coverage, over-expression of source gene, CLL / Target coverage, over-expression of source gene, CRC / Target coverage, over-expression of source gene, GB / Target coverage, over-expression of source gene, HCC / Target coverage, over-expression of source gene, OC / Target coverage, over-expression of source gene, OSCAR / Target coverage, over-expression of source gene, PC / Target coverage, over-expression of source gene, RCC / Target coverage, over-expression of source gene, SCLC / Target coverage, over-expression of source gene, pNSCLC: in-house RNASeq; for Target coverage, over-expression of source gene, BRCA: BRCA (N = 10); for Target coverage, over-expression of source gene, CLL: CLL (N = 10); for Target coverage, over-expression of source gene, CRC: CRC (N = 20); for Target coverage, over-expression of source gene, GB: GB (N = 24); for Target coverage, over-expression of source gene, HCC: HCC (N = 15); for Target coverage, over-expression of source gene, OC: OC (N = 12); for Target coverage, over-expression of source gene, OSCAR: OSCAR (N = 11); for Target coverage, over-expression of source gene, PC: PC (N = 26); for Target coverage, over-expression of source gene, RCC: RCC (N = 10); for Target coverage, over-expression of source gene, SCLC: SCLC (N = 10); for Target coverage, over-expression of source gene, pNSCLC: pNSCLC (N = 11); for Target coverage for source genes of selected peptides, GBC_CCC (N = 10): gallbladder adenocarcinoma and cholangiocarcinoma; for Target coverage for source genes of selected peptides, GBC_CCC (N = 10) / Target coverage for source genes of selected peptides, GC (N = 11) / Target coverage for source genes of selected peptides, HNSCC (N = 10) / Target coverage for source genes of selected peptides, MEL (N = 10) / Target coverage for source genes of selected peptides, NHL (N = 10) / Target coverage for source genes of selected peptides, PCA (n = 10) / Target coverage for source genes of selected peptides, UBC (N = 10) / Target coverage for source genes of selected peptides, UTC (N = 10): share of tumors with more than 1.5-fold higher expression than the highest-expressing relevant normal tissue, in-house RNAseq; for Target coverage for source genes of selected peptides, GC (N = 11): gastric cancer; for Target coverage for source genes of selected peptides, HNSCC (N = 10): head and neck small cell carcinoma; for Target coverage for source genes of selected peptides, MEL (N = 10): melanoma; for Target coverage for source genes of selected peptides, NHL (N = 10): non-Hodgkin lymphoma; for Target coverage for source genes of selected peptides, PCA (n = 10): prostate cancer and benign prostate hyperplasia; for Target coverage for source genes of selected peptides, UBC (N = 10): urinary bladder cancer; for Target coverage for source genes of selected peptides, UTC (N = 10): uterine cancer
# [4] = over-expression = more than 1.5-fold vs highest normal tissue
# [5] = share of tumors with more than 1.5-fold higher expression than highest relevant normal tissue
Substance,"Target coverage, over-expression category of source gene, BLCA (N = 408) [1]","Target coverage, over-expression category of source gene, DLBC (N = 48) [1]","Target coverage, over-expression category of source gene, MESO (N = 87) [1]",ENTITIES [2],"Target coverage, over-expression category of source gene, KIRP (N = 291) [1]","Target coverage for source genes of selected peptides, GBC_CCC (N = 10) [3]","Target coverage for source genes of selected peptides, GC (N = 11) [3]","Target coverage for source genes of selected peptides, HNSCC (N = 10) [3]","Target coverage, over-expression of source gene, AML [3, 5]","Target coverage, over-expression of source gene, BRCA [3, 5]","Target coverage, over-expression of source gene, CLL [3, 5]","Target coverage, over-expression of source gene, CRC [3, 5]","Target coverage, over-expression of source gene, GB [3, 5]","Target coverage, over-expression of source gene, HCC [3, 5]","Target coverage, over-expression of source gene, OC [3, 5]","Target coverage, over-expression of source gene, OSCAR [3, 5]","Target coverage, over-expression of source gene, PC [3, 5]","Target coverage, over-expression of source gene, RCC [3, 5]","Target coverage, over-expression of source gene, SCLC [3, 5]","Target coverage, over-expression of source gene, pNSCLC [3, 5]",other results
174: peptide found in MMP13 (gene looked up) (VYEKNGYIYF; listed as Homo sapiens) [compound 174],"B (>=20% of tumors above the cutoff, but <50%)","C (>=5% of tumors above the cutoff, but <20%)","C (>=5% of tumors above the cutoff, but <20%)","NSCLC, GB",,,,,,,,,,,,,,,,,"Target coverage, over-expression category of source gene, CESC (N = 307) ([1]; Cervical squamous cell carcinoma and endocervical adenocarcinoma): B (>=20% of tumors above the cutoff, but <50%); Target coverage, over-expression category of source gene, HNSC (N = 521) ([1]; Head and neck squamous cell carcinoma): A (>=50% of tumors above the cutoff); Target coverage, over-expression of source gene, AML ([3]; over-expression = more than 1.5-fold higher expression on tumor vs highest-expressing relevant normal tissue): I (<19% over-expression = I); Target coverage, over-expression of source gene, BRCA [3, 4]: II (20-49% = II); Target coverage, over-expression of source gene, CLL [3, 4]: I (<19% over-expression = I); Target coverage, over-expression of source gene, CRC [3, 4]: I (<19% over-expression = I); Target coverage, over-expression of source gene, GB [3, 4]: I (<19% over-expression = I); Target coverage, over-expression of source gene, HCC [3, 4]: I (<19% over-expression = I); Target coverage, over-expression of source gene, OC [3, 4]: I (<19% over-expression = I); Target coverage, over-expression of source gene, OSCAR [3, 4]: III (50-69% = III); Target coverage, over-expression of source gene, PC [3, 4]: I (<19% over-expression = I); Target coverage, over-expression of source gene, RCC [3, 4]: I (<19% over-expression = I); Target coverage, over-expression of source gene, SCLC [3, 4]: I (<19% over-expression = I); Target coverage, over-expression of source gene, pNSCLC [3, 4]: II (20-49% = II)"
180: peptide found in OXTR (gene looked up) (KYLQVVGMF; listed as Homo sapiens) [compound 180],"C (>=5% of tumors above the cutoff, but <20%)",,A (>=50% of tumors above the cutoff),"NSCLC, GB","C (>=5% of tumors above the cutoff, but <20%)",I (<19% over-expression = I),I (<19% over-expression = I),I (<19% over-expression = I),,,,,,,,,,,,,"Target coverage, over-expression category of source gene, CHOL (N = 36) ([1]; Cholangiocarcinoma): A (>=50% of tumors above the cutoff); Target coverage, over-expression category of source gene, LGG (N = 534) ([1]; Lower grade glioma): B (>=20% of tumors above the cutoff, but <50%); Target coverage, over-expression category of source gene, PCPG (N = 184) ([1]; Pheochromocytoma and paraganglioma): C (>=5% of tumors above the cutoff, but <20%); Target coverage for source genes of selected peptides, MEL (N = 10) [3]: I (<19% over-expression = I); Target coverage for source genes of selected peptides, NHL (N = 10) [3]: I (<19% over-expression = I); Target coverage for source genes of selected peptides, PCA (n = 10) [3]: I (<19% over-expression = I); Target coverage for source genes of selected peptides, UBC (N = 10) [3]: I (<19% over-expression = I); Target coverage for source genes of selected peptides, UTC (N = 10) [3]: I (<19% over-expression = I)"
181: peptide found in PGR (gene looked up) (VYPPYLNYL; listed as Homo sapiens) [compound 181],,,,,,,,,I (<19% over-expression = I),II (20-49% = II),I (<19% over-expression = I),I (<19% over-expression = I),I (<19% over-expression = I),I (<19% over-expression = I),I (<19% over-expression = I),I (<19% over-expression = I),I (<19% over-expression = I),I (<19% over-expression = I),I (<19% over-expression = I),I (<19% over-expression = I),"Target coverage, over-expression category of source gene, ACC (N = 79) ([1]; Adrenocortical carcinoma): C (>=5% of tumors above the cutoff, but <20%); Target coverage, over-expression category of source gene, KICH (N = 66) ([1]; Kidney chromophobe): B (>=20% of tumors above the cutoff, but <50%); Peptide Presentation on cancer entities [2]: PCA"
182: peptide found in PKD2L1 (gene looked up) (AYAQLGYLLF; listed as Homo sapiens) [compound 182],,,,NSCLC,"C (>=5% of tumors above the cutoff, but <20%)",,,,I (<19% over-expression = I),I (<19% over-expression = I),I (<19% over-expression = I),I (<19% over-expression = I),I (<19% over-expression = I),I (<19% over-expression = I),I (<19% over-expression = I),I (<19% over-expression = I),I (<19% over-expression = I),I (<19% over-expression = I),II (20-49% = II),I (<19% over-expression = I),
191: peptide found in TIGIT (gene looked up) (TYPDGTYTGRIF; listed as Homo sapiens) [compound 191],,A (>=50% of tumors above the cutoff),,,,I (<19% over-expression = I),I (<19% over-expression = I),I (<19% over-expression = I),I (<19% over-expression = I),I (<19% over-expression = I),II (20-49% = II),I (<19% over-expression = I),I (<19% over-expression = I),I (<19% over-expression = I),I (<19% over-expression = I),I (<19% over-expression = I),I (<19% over-expression = I),I (<19% over-expression = I),I (<19% over-expression = I),I (<19% over-expression = I),"Peptide Presentation on cancer entities [2]: NSCLC; Target coverage for source genes of selected peptides, MEL (N = 10) [3]: I (<19% over-expression = I); Target coverage for source genes of selected peptides, NHL (N = 10) [3]: II (20-49% = II); Target coverage for source genes of selected peptides, PCA (n = 10) [3]: I (<19% over-expression = I); Target coverage for source genes of selected peptides, UBC (N = 10) [3]: I (<19% over-expression = I); Target coverage for source genes of selected peptides, UTC (N = 10) [3]: I (<19% over-expression = I)"
